Results deposited as PubChem BioAssay AID504774 (Drosophila RNAi Screening Center, 2011)

- Aim: 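Knock-downs that shift viability of MMS-exposed cells relative to untreated ones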 (primary screen)
- System: Drosophila Kc167 cells
- Reagents: long dsRNA against Drosophila genes, about 0.25 µg dsRNA per well
- Timing: about 6 days: 3 days knock-down, then 3 days with or without MMS
- Treatment: methyl methanesulphonate 0.004% (w/v) for 3 days after knock-down
- Measurement: 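Viability in wells given MMS, read as ATP luminescence, normalised by quantiles plate by plate and averaged across replicates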
- Scale: mean viability with MMS: higher = more surviving cells after MMS
The screen tested about 23,000 reagents; shown is a random part of those that have a named target and a result. 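Values are quantile-normalised luminescence on an arbitrary scale; higher means more cells surviving MMS.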 Reagents against one gene are numbered here. Names joined by + are all predicted targets of the reagent. Further read-outs or replicates are left out here.

mean viability with MMS, by gene and reagent
CG1136 (GeneID 38479): #1 3.65e6
CG16879 (retired record) (GeneID 34827): #1 3.62e6; #2 3.43e6
Aos1 (GeneID 41532): #1 3.27e6
Trmt112 (GeneID 40343): #1 3.57e6
Ddc (GeneID 35190): #1 3.58e6
CG13168 (GeneID 36327): #1 3.70e6
Vps26 (GeneID 31144): #1 3.51e6
CG3430 (GeneID 33976): #1 3.58e6
CG12016 + Dpm2: #1 3.52e6
hyd (GeneID 41181): #1 3.31e6
CG32668 (GeneID 318147): #1 3.36e6
CG3609 (GeneID 33421): #1 3.52e6
CG40005 (retired record) + cta: #1 3.61e6
Pop4 (GeneID 38889): #1 3.38e6
CG43367 (GeneID 38505): #1 3.57e6; #2 3.53e6; #3 3.42e6
l(3)62Be (retired record) (GeneID 48504): #1 3.55e6
Lcp65Aa (GeneID 38709): #1 3.69e6
UQCR-C1 (GeneID 41800): #1 3.67e6
corto (GeneID 40616): #1 3.35e6; #2 3.54e6; #3 3.65e6
CG16812 (GeneID 34722): #1 3.61e6
r-cup (GeneID 33075): #1 3.43e6
CG31533 (GeneID 318788): #1 3.48e6
pie (GeneID 44315): #1 3.28e6

Entries listed so far whose gene name starts with L or l:
mean viability with MMS, by gene and reagent
l(3)62Be (retired record) (GeneID 48504): #1 3.55e6
Lcp65Aa (GeneID 38709): #1 3.69e6
